Values from PubChem BioAssay AID1224828 (NIAID, 2016).

- Aim: 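Knock-downs that increase or decrease LPS-induced p65 nuclear translocation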 (primary screen)
- Cell system: mouse RAW264.7 G9 macrophage reporter cells (GFP-p65, Tnf promoter-mCherry)
- Reagent: siRNA pool against mouse genes, 100 nM
- Time to read-out: 2 days siRNA transfection, then 40 min LPS before fixation
- Treatment: LPS (Salmonella minnesota R595) at 10 ng/ml
- Read-out: 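Imaged p65 nuclear translocation ratio, normalised to the plate median, converted to robust z-scores and averaged across two replicates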
- Direction: p65 translocation robust z-score: higher = more nuclear NF-kappaB p65 after LPS than the plate median; nuclear/cytoplasmic p65 ratio: higher = more nuclear NF-kappaB p65
- Call rule: 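Active if robust z is above 3.3 (negative regulators) or below -1.56, the Tlr4 control median (positive regulators); activity score 50 or more; control wells not called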
- Calls: active = hit (p65 shift raised or lowered); inactive = no clear change
The whole screen tested about 17,000 reagents; this is a part drawn at random. Over the whole deposit, 762 (4.5%) got an active call. 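Active calls include both raised and lowered p65 entry, mostly lowered; wells with fewer than 50 cells lack a z-score.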 Raw values vary from plate to plate and are shown uncorrected. The numbers tell different reagents against one gene apart.

Scg5 | p65 translocation robust z-score = -0.03; nuclear/cytoplasmic p65 ratio, rep 1 = 1.53; nuclear/cytoplasmic p65 ratio, rep 2 = 1.56; low cell count flag = enough cells to score; activity call = inactive
Acan | p65 translocation robust z-score = -0.52; nuclear/cytoplasmic p65 ratio, rep 1 = 1.54; nuclear/cytoplasmic p65 ratio, rep 2 = 1.55; low cell count flag = enough cells to score; activity call = inactive
Dek | p65 translocation robust z-score = -0.57; nuclear/cytoplasmic p65 ratio, rep 1 = 1.41; nuclear/cytoplasmic p65 ratio, rep 2 = 1.29; low cell count flag = enough cells to score; activity call = inactive
Paox | p65 translocation robust z-score = -0.73; nuclear/cytoplasmic p65 ratio, rep 1 = 1.41; nuclear/cytoplasmic p65 ratio, rep 2 = 1.1; low cell count flag = enough cells to score; activity call = inactive
Skic8 | nuclear/cytoplasmic p65 ratio, rep 1 = 1.34; nuclear/cytoplasmic p65 ratio, rep 2 = 1.22; low cell count flag = fewer than 50 cells per well; well left out of scoring; activity call = inactive
Grep1 | p65 translocation robust z-score = 0.99; nuclear/cytoplasmic p65 ratio, rep 1 = 1.67; nuclear/cytoplasmic p65 ratio, rep 2 = 1.59; low cell count flag = enough cells to score; activity call = inactive
Sectm1a | p65 translocation robust z-score = 0.83; nuclear/cytoplasmic p65 ratio, rep 1 = 1.67; nuclear/cytoplasmic p65 ratio, rep 2 = 2.02; low cell count flag = enough cells to score; activity call = inactive
Gas5 | p65 translocation robust z-score = -0.37; nuclear/cytoplasmic p65 ratio, rep 1 = 1.52; nuclear/cytoplasmic p65 ratio, rep 2 = 1.37; low cell count flag = enough cells to score; activity call = inactive
Or13c7b | p65 translocation robust z-score = -0.37; nuclear/cytoplasmic p65 ratio, rep 1 = 1.58; nuclear/cytoplasmic p65 ratio, rep 2 = 1.35; low cell count flag = enough cells to score; activity call = inactive
Msr1 | p65 translocation robust z-score = -0.52; nuclear/cytoplasmic p65 ratio, rep 1 = 1.37; nuclear/cytoplasmic p65 ratio, rep 2 = 1.21; low cell count flag = enough cells to score; activity call = inactive
Caln1 | p65 translocation robust z-score = -1.05; nuclear/cytoplasmic p65 ratio, rep 1 = 1.53; nuclear/cytoplasmic p65 ratio, rep 2 = 1.51; low cell count flag = enough cells to score; activity call = inactive
Txnl4a #1 | p65 translocation robust z-score = -0.49; nuclear/cytoplasmic p65 ratio, rep 1 = 1.26; nuclear/cytoplasmic p65 ratio, rep 2 = 1.23; low cell count flag = enough cells to score; activity call = inactive
Txnl4a #2 | p65 translocation robust z-score = -3.15; nuclear/cytoplasmic p65 ratio, rep 1 = 1.09; nuclear/cytoplasmic p65 ratio, rep 2 = 1.12; low cell count flag = enough cells to score; activity call = active
Errfi1 | p65 translocation robust z-score = -0.43; nuclear/cytoplasmic p65 ratio, rep 1 = 1.68; nuclear/cytoplasmic p65 ratio, rep 2 = 1.19; low cell count flag = enough cells to score; activity call = inactive

Records above whose target name begins with S or s (3):
Scg5 | p65 translocation robust z-score = -0.03; nuclear/cytoplasmic p65 ratio, rep 1 = 1.53; nuclear/cytoplasmic p65 ratio, rep 2 = 1.56; low cell count flag = enough cells to score; activity call = inactive
Skic8 | nuclear/cytoplasmic p65 ratio, rep 1 = 1.34; nuclear/cytoplasmic p65 ratio, rep 2 = 1.22; low cell count flag = fewer than 50 cells per well; well left out of scoring; activity call = inactive
Sectm1a | p65 translocation robust z-score = 0.83; nuclear/cytoplasmic p65 ratio, rep 1 = 1.67; nuclear/cytoplasmic p65 ratio, rep 2 = 2.02; low cell count flag = enough cells to score; activity call = inactive
